Laboratory results as given in PubChem BioAssay AID1259415 (National Center for Advancing Translational Sciences (NCATS), 2018).
In all, about 410,000 compounds went through this assay and about 18,000 (4.4%) were called active. This list was built around the results that the source calls inconclusive (neither active nor inactive); the mix of calls is not that of the screen. Cut-off read from the data, not from the text of the source: active = activity change below about -60%; inconclusive = no clear call, values can overlap the other calls; inactive = above about -39%. The source holds several records for some structures; these can differ, active in one and inactive in another.

Test: qHTS Assay for inhibitors of the human cytomegalovirus (HCMV)
Details: HFF cells, HCMV-luciferase reporter, 72 h; at 57.5 µM; hits give low values
Method in brief: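 Two-dose cell screen: HFF monolayers treated with compounds and infected with luciferase-expressing HCMV at 1 PFU/cell, 72 h at 37C, then lysed for luciferase measurement.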
% is set by controls: 0 for no effect and ±100 for the full control effect.

SMILES	activity change, negative = inhibition
CCOC(=O)C1=C(O)CSC1=Nc1ccc(C)cc1	inconclusive: -46.2%
Cn1nc(C(=O)Nc2ccccc2C#N)c2c1-c1ccccc1SC2	inconclusive: -50.1%
Cc1ccc(NC(=O)CN2C(=O)C(C)(C)c3cc(S(=O)(=O)N4CCCCC4)ccc32)c(Br)c1	inactive: -26.4%
CN1CCN(CCc2nc3cc(NC(=O)COc4ccc(Cl)cc4)ccc3n2C)CC1	inconclusive: -57.8%
CC(/C=N/NC(=O)c1nnn(-c2nonc2N)c1C(C)C)=C\c1ccccc1	inactive: -31.9%
CCOc1cccc(C2c3c(oc4cc(C)c(C)cc4c3=O)C(=O)N2c2nc(C)c(C)s2)c1 (stereo not drawn)	inactive: 4.77%
COc1ccc(CN2CCN(C(=O)c3ccc(S(=O)(=O)N4CCCCCC4)cc3)CC2)cc1F	active: -77.4%
CCN(CC)S(=O)(=O)c1ccc(N2CCOCC2)c(NC(=O)C2COc3ccccc3O2)c1 (stereo not drawn)	inconclusive: -50.9%
N#Cc1cc2c(nc1SCC(=O)NCc1ccc3c(c1)OCO3)CCCCC2	inconclusive: -43.5%
Cc1ccc(-n2ncc3c2CCCC3NC(=O)c2ccoc2)cc1C (stereo not drawn)	inconclusive: -41.2%
COCCCNC(=S)Nc1cc2oc3ccccc3c2cc1OC	inactive: 3.77%
CCOc1ccc(Cl)cc1-c1cc(C(=O)Nc2ccc(C(C)C)cc2)[nH]n1	inconclusive: -50.4%
CCN1CCN(c2cc(C)c3cc(NC(=O)c4cc(OC)cc(OC)c4)ccc3n2)CC1	active: -89.6%
CN(C)S(=O)(=O)c1ccc(-c2csc(N/N=C/c3ccc(O)cc3)n2)cc1	inconclusive: 0%
CCOc1cccc(C(=O)NC(=S)Nc2cccc(NC(=O)c3ccccc3Cl)c2)c1	inconclusive: -42.9%
CCN(Cc1ccc2c(c1)OCO2)C(=O)CSc1ncnc2sccc12	inactive: -2.57%
O=S(Cc1cc(Sc2ccccc2)nc(-c2ccccc2)n1)c1ccccc1 (stereo not drawn)	inconclusive: -43.2%
COc1ccc(C(C(=O)NC2CCCCC2)N(C(=O)Cc2c[nH]c3ccccc23)c2ccccc2C)cc1OC (stereo not drawn)	inconclusive: -59.5%
CC(C)c1ccc(N(CC(=O)NC2CCCCC2)C(=O)CNC(=O)c2ccco2)cc1	inconclusive: -51.3%
CCN1C(c2ccccc2)C(C)C(=O)C(C)C1c1ccccc1 (stereo not drawn)	inactive: -28.9%
CCNC(=O)C1(C)CCCN(C(=O)c2cccnc2Oc2ccccc2)C1 (stereo not drawn)	inactive: -20.6%
COc1ccccc1C1=Nn2c(nc3sc(C(=O)Nc4ccccc4Cl)c(C)c3c2=O)SC1	inconclusive: -53.3%

SMILES	activity change, negative = inhibition
O=C(Nc1ccc(Br)c(Cl)c1)C1CC1	active: -62.2%
CC(C)(C)c1ccc(CC(=O)N2CCC2(C)C(=O)Nc2ccc(F)cc2F)cc1 (stereo not drawn)	inconclusive: -41.8%
O=C(Nc1ccccc1N1CCOCC1)c1cc2c(s1)CCCCC2	inactive: -33.6%
CC(=O)c1c(O)cc(O)cc1O	inactive: 17.2%
COc1cc(NC(=O)C2CC(=O)N(Cc3ccco3)C2)c(OC)cc1Cl (stereo not drawn)	inactive: 61.7%
CC1Cc2cc(S(=O)(=O)CCC(=O)Nc3ccc(OC(F)(F)F)cc3)ccc2N1C(=O)C1CC1 (stereo not drawn)	inconclusive: -48.4%
O=C(NNC(=S)NC(=O)c1ccco1)c1ccc(NC(=O)c2ccccc2)cc1	inconclusive: -41.1%
O=C(Cc1ccc(Cl)cc1Cl)Nc1ccncc1	active: -66.2%
CC1OC2CC(=O)OC2C2=C1C(=O)c1c(O)cccc1C2=O (stereo not drawn)	active: -106%
Cc1cccc(C)c1NC(=O)CSc1nccn1C	inactive: -2.42%
CCOc1ccc(CNC(=O)c2cccc(Nc3nc4ccccc4n4nnnc34)c2)cc1OC	inactive: -17.1%
CCCCCc1c(C)nc(Nc2ccccc2)[nH]c1=O	inconclusive: -52.7%
O=C(Nc1ccc(S(=O)(=O)Nc2ccccc2)cc1)C1CC1	inconclusive: -46.4%
COc1cccc(NS(=O)(=O)c2cc(-c3cnc(C4CC4)o3)ccc2C)c1	active: -88.9%
COc1cccc(C2=CC(=O)C[C@H](c3ccc(F)cc3)C2)c1	inconclusive: -55.6%
Cc1cccc(NC(=O)CSc2nnc(Cc3ccccc3)o2)c1	inactive: -3.31%
NS(=O)(=O)c1ccc(CCNC(=O)CNC(=O)Cc2ccccc2)cc1	inconclusive: -59.1%
COc1ccccc1NC(=S)N1CCCc2ccccc21	inconclusive: -45.7%
O=C(NCC1CCCO1)c1cccc(NC(=O)c2ccc(Br)cc2)c1 (stereo not drawn)	inconclusive: -50.4%
CCc1ccccc1Nc1nc2ccccc2n1C(C)C	inconclusive: -42.1%
Cc1ccccc1NC(=O)c1cc2c(C)nc3ccccc3c2o1	active: -83.2%

Molecules above containing bromine (3):
SMILES	activity change, negative = inhibition
Cc1ccc(NC(=O)CN2C(=O)C(C)(C)c3cc(S(=O)(=O)N4CCCCC4)ccc32)c(Br)c1	inactive: -26.4%
O=C(Nc1ccc(Br)c(Cl)c1)C1CC1	active: -62.2%
O=C(NCC1CCCO1)c1cccc(NC(=O)c2ccc(Br)cc2)c1 (stereo not drawn)	inconclusive: -50.4%
